{"source": "ChEMBL document CHEMBL1157379", "about": "“Transcriptional response of Candida parapsilosis following exposure to farnesol” (2007)", "assay_type_in_all_cases": "functional", "key": {"Candida parapsilosis [1]": {"tested_on": "Candida parapsilosis", "assay": "Increase in CGD gene ortholog accession number orf19.6417 expression in Candida parapsilosis CLIB214 at 50 uM after 2 hrs by microarray based transcriptional profiling relative to control"}, "Candida parapsilosis [2]": {"tested_on": "Candida parapsilosis", "assay": "Decrease in CGD gene ortholog accession number orf19.6254 expression in Candida parapsilosis CLIB214 at 50 uM after 2 hrs by microarray based transcriptional profiling relative to control"}, "Candida parapsilosis [3]": {"tested_on": "Candida parapsilosis", "assay": "Increase in SNZ1 gene expression in Candida parapsilosis CLIB214 at 50 uM after 2 hrs by microarray based transcriptional profiling relative to control"}, "Candida parapsilosis [4]": {"tested_on": "Candida parapsilosis", "assay": "Decrease in CGD gene ortholog accession number orf19.6444 expression in Candida parapsilosis CLIB214 at 50 uM after 2 hrs by microarray based transcriptional profiling relative to control"}, "Candida parapsilosis [5]": {"tested_on": "Candida parapsilosis", "assay": "Increase in CGD gene ortholog accession number orf19.457 expression in Candida parapsilosis CLIB214 at 50 uM after 2 hrs by microarray based transcriptional profiling relative to control"}, "Candida parapsilosis [6]": {"tested_on": "Candida parapsilosis", "assay": "Increase in CGD gene ortholog accession number orf19.5661 expression in Candida parapsilosis CLIB214 at 50 uM after 2 hrs by microarray based transcriptional profiling relative to control"}, "Candida parapsilosis [7]": {"tested_on": "Candida parapsilosis", "assay": "Decrease in CGD gene ortholog accession number orf19.1355 expression in Candida parapsilosis CLIB214 at 50 uM after 2 hrs by microarray based transcriptional profiling relative to control"}, "Candida parapsilosis [8]": {"tested_on": "Candida parapsilosis", "assay": "Increase in GenBank accession number AAF06350.1 expression in Candida parapsilosis CLIB214 at 50 uM after 2 hrs by microarray based transcriptional profiling relative to control"}, "Candida parapsilosis [9]": {"tested_on": "Candida parapsilosis", "assay": "Decrease in CGD gene ortholog accession number orf19.2788 expression in Candida parapsilosis CLIB214 at 50 uM after 2 hrs by microarray based transcriptional profiling relative to control"}, "Candida parapsilosis [10]": {"tested_on": "Candida parapsilosis", "assay": "Increase in CGD gene ortholog accession number orf19.25 expression in Candida parapsilosis CLIB214 at 50 uM after 2 hrs by microarray based transcriptional profiling relative to control"}, "Candida parapsilosis [11]": {"tested_on": "Candida parapsilosis", "assay": "Increase in CGD gene ortholog accession number orf19.5015 expression in Candida parapsilosis CLIB214 at 50 uM after 2 hrs by microarray based transcriptional profiling relative to control"}, "Candida parapsilosis [12]": {"tested_on": "Candida parapsilosis", "assay": "Increase in CGD gene ortholog accession number orf19.6973 expression in Candida parapsilosis CLIB214 at 50 uM after 2 hrs by microarray based transcriptional profiling relative to control"}, "Candida parapsilosis [13]": {"tested_on": "Candida parapsilosis", "assay": "Increase in GenBank accession number NP_943641.1 expression in Candida parapsilosis CLIB214 at 50 uM after 2 hrs by microarray based transcriptional profiling relative to control"}, "Candida parapsilosis [14]": {"tested_on": "Candida parapsilosis", "assay": "Decrease in CGD gene ortholog accession number orf19.3332 expression in Candida parapsilosis CLIB214 at 50 uM after 2 hrs by microarray based transcriptional profiling relative to control"}, "Candida parapsilosis [15]": {"tested_on": "Candida parapsilosis", "assay": "Decrease in CGD gene ortholog accession number orf19.673 expression in Candida parapsilosis CLIB214 at 50 uM after 2 hrs by microarray based transcriptional profiling relative to control"}, "Candida parapsilosis [16]": {"tested_on": "Candida parapsilosis", "assay": "Increase in CGD gene ortholog accession number orf19.2288 expression in Candida parapsilosis CLIB214 at 50 uM after 2 hrs by microarray based transcriptional profiling relative to control"}, "Candida parapsilosis [17]": {"tested_on": "Candida parapsilosis", "assay": "Decrease in PGA12 gene expression in Candida parapsilosis CLIB214 at 50 uM after 2 hrs by microarray based transcriptional profiling relative to control"}, "Candida parapsilosis [18]": {"tested_on": "Candida parapsilosis", "assay": "Increase in CGD gene ortholog accession number orf19.2715 expression in Candida parapsilosis CLIB214 at 50 uM after 2 hrs by microarray based transcriptional profiling relative to control"}, "Candida parapsilosis [19]": {"tested_on": "Candida parapsilosis", "assay": "Decrease in CGD gene ortholog accession number orf19.3235 expression in Candida parapsilosis CLIB214 at 50 uM after 2 hrs by microarray based transcriptional profiling relative to control"}, "Candida parapsilosis [20]": {"tested_on": "Candida parapsilosis", "assay": "Decrease in CGD gene ortholog accession number orf19.731 expression in Candida parapsilosis CLIB214 at 50 uM after 2 hrs by microarray based transcriptional profiling relative to control"}, "Candida parapsilosis [21]": {"tested_on": "Candida parapsilosis", "assay": "Increase in CGD gene ortholog accession number orf19.2167 expression in Candida parapsilosis CLIB214 at 50 uM after 2 hrs by microarray based transcriptional profiling relative to control"}, "Candida parapsilosis [22]": {"tested_on": "Candida parapsilosis", "assay": "Increase in CGD gene ortholog accession number orf19.2310 expression in Candida parapsilosis CLIB214 at 50 uM after 2 hrs by microarray based transcriptional profiling relative to control"}, "Candida parapsilosis [23]": {"tested_on": "Candida parapsilosis", "assay": "Decrease in CGD gene ortholog accession number orf19.4700 expression in Candida parapsilosis CLIB214 at 50 uM after 2 hrs by microarray based transcriptional profiling relative to control"}, "Candida parapsilosis [24]": {"tested_on": "Candida parapsilosis", "assay": "Increase in GenBank accession number NP_943649.1 expression in Candida parapsilosis CLIB214 at 50 uM after 2 hrs by microarray based transcriptional profiling relative to control"}, "Candida parapsilosis [25]": {"tested_on": "Candida parapsilosis", "assay": "Increase in CGD gene ortholog accession number orf19.192 expression in Candida parapsilosis CLIB214 at 50 uM after 2 hrs by microarray based transcriptional profiling relative to control"}, "Candida parapsilosis [26]": {"tested_on": "Candida parapsilosis", "assay": "Increase in CAG1 gene expression in Candida parapsilosis CLIB214 at 50 uM after 2 hrs by microarray based transcriptional profiling relative to control"}, "Candida parapsilosis [27]": {"tested_on": "Candida parapsilosis", "assay": "Reduction in VTC3 gene expression in Candida parapsilosis CLIB214 by RT-PCR"}, "Candida parapsilosis [28]": {"tested_on": "Candida parapsilosis", "assay": "Decrease in SCT2 gene expression in Candida parapsilosis CLIB214 at 50 uM after 2 hrs by microarray based transcriptional profiling relative to control"}, "Candida parapsilosis [29]": {"tested_on": "Candida parapsilosis", "assay": "Decrease in CGD gene ortholog accession number orf19.6360 expression in Candida parapsilosis CLIB214 at 50 uM after 2 hrs by microarray based transcriptional profiling relative to control"}, "Candida parapsilosis [30]": {"tested_on": "Candida parapsilosis", "assay": "Increase in CGD gene ortholog accession number orf19.4633 expression in Candida parapsilosis CLIB214 at 50 uM after 2 hrs by microarray based transcriptional profiling relative to control"}, "Candida parapsilosis [31]": {"tested_on": "Candida parapsilosis", "assay": "Decrease in CGD gene ortholog accession number orf19.3084 expression in Candida parapsilosis CLIB214 at 50 uM after 2 hrs by microarray based transcriptional profiling relative to control"}, "Candida parapsilosis [32]": {"tested_on": "Candida parapsilosis", "assay": "Increase in CGD gene ortholog accession number orf19.4243 expression in Candida parapsilosis CLIB214 at 50 uM after 2 hrs by microarray based transcriptional profiling relative to control"}, "Candida parapsilosis [33]": {"tested_on": "Candida parapsilosis", "assay": "Increase in CGD gene ortholog accession number orf19.3799 expression in Candida parapsilosis CLIB214 at 50 uM after 2 hrs by microarray based transcriptional profiling relative to control"}, "Candida parapsilosis [34]": {"tested_on": "Candida parapsilosis", "assay": "Increase in CGD gene ortholog accession number orf19.1933 expression in Candida parapsilosis CLIB214 at 50 uM after 2 hrs by microarray based transcriptional profiling relative to control"}, "Candida parapsilosis [35]": {"tested_on": "Candida parapsilosis", "assay": "Decrease in CGD gene ortholog accession number orf19.292 expression in Candida parapsilosis CLIB214 at 50 uM after 2 hrs by microarray based transcriptional profiling relative to control"}, "Candida parapsilosis [36]": {"tested_on": "Candida parapsilosis", "assay": "Increase in CGD gene ortholog accession number orf19.5617 expression in Candida parapsilosis CLIB214 at 50 uM after 2 hrs by microarray based transcriptional profiling relative to control"}}, "note": "This continues a long series; more values of the same kind are listed elsewhere."}
{"molecule": "CC(C)=CCC/C(C)=C/CC/C(C)=C/CO", "note": "[FARNESOL]", "values": [{"measurement": "fold change (FC)", "setting": "Candida parapsilosis [1]", "result": 1.64}, {"measurement": "fold change (FC)", "setting": "Candida parapsilosis [2]", "result": 1.64}, {"measurement": "fold change (FC)", "setting": "Candida parapsilosis [3]", "result": 2.01}, {"measurement": "fold change (FC)", "setting": "Candida parapsilosis [4]", "result": 1.99}, {"measurement": "fold change (FC)", "setting": "Candida parapsilosis [5]", "result": 1.5}, {"measurement": "fold change (FC)", "setting": "Candida parapsilosis [6]", "result": 1.71}, {"measurement": "fold change (FC)", "setting": "Candida parapsilosis [7]", "result": 1.52}, {"measurement": "fold change (FC)", "setting": "Candida parapsilosis [8]", "result": 2.39}, {"measurement": "fold change (FC)", "setting": "Candida parapsilosis [9]", "result": 1.83}, {"measurement": "fold change (FC)", "setting": "Candida parapsilosis [10]", "result": 1.59}, {"measurement": "fold change (FC)", "setting": "Candida parapsilosis [11]", "result": 2.21}, {"measurement": "fold change (FC)", "setting": "Candida parapsilosis [12]", "result": 1.53}, {"measurement": "fold change (FC)", "setting": "Candida parapsilosis [13]", "result": 2.03}, {"measurement": "fold change (FC)", "setting": "Candida parapsilosis [14]", "result": 2.2}, {"measurement": "fold change (FC)", "setting": "Candida parapsilosis [15]", "result": 1.58}, {"measurement": "fold change (FC)", "setting": "Candida parapsilosis [16]", "result": 2.19}, {"measurement": "fold change (FC)", "setting": "Candida parapsilosis [17]", "result": 1.55}, {"measurement": "fold change (FC)", "setting": "Candida parapsilosis [18]", "result": 1.67}, {"measurement": "fold change (FC)", "setting": "Candida parapsilosis [19]", "result": 1.7}, {"measurement": "fold change (FC)", "setting": "Candida parapsilosis [20]", "result": 2.1}, {"measurement": "fold change (FC)", "setting": "Candida parapsilosis [21]", "result": 1.54}, {"measurement": "fold change (FC)", "setting": "Candida parapsilosis [22]", "result": 1.93}, {"measurement": "fold change (FC)", "setting": "Candida parapsilosis [23]", "result": 1.83}, {"measurement": "fold change (FC)", "setting": "Candida parapsilosis [24]", "result": 2.61}, {"measurement": "fold change (FC)", "setting": "Candida parapsilosis [25]", "result": 1.58}, {"measurement": "fold change (FC)", "setting": "Candida parapsilosis [26]", "result": 1.7}, {"measurement": "fold change (FC)", "setting": "Candida parapsilosis [27]", "result": 1.52}, {"measurement": "fold change (FC)", "setting": "Candida parapsilosis [28]", "result": 1.91}, {"measurement": "fold change (FC)", "setting": "Candida parapsilosis [29]", "result": 2.48}, {"measurement": "fold change (FC)", "setting": "Candida parapsilosis [30]", "result": 1.57}, {"measurement": "fold change (FC)", "setting": "Candida parapsilosis [31]", "result": 1.57}, {"measurement": "fold change (FC)", "setting": "Candida parapsilosis [32]", "result": 1.88}, {"measurement": "fold change (FC)", "setting": "Candida parapsilosis [33]", "result": 1.55}, {"measurement": "fold change (FC)", "setting": "Candida parapsilosis [34]", "result": 1.58}, {"measurement": "fold change (FC)", "setting": "Candida parapsilosis [35]", "result": 1.78}, {"measurement": "fold change (FC)", "setting": "Candida parapsilosis [36]", "result": 1.71}]}
